The values that follow come from publication PMC8505768.

No constants are given. Whether binding was seen depends on the method and setting. In cells and extracts the contact can be indirect. Some entries that bind do so weakly or less than the wild type.

The assay has as its target T1, S100 Calcium Binding Protein A16 (human (endogenous in SGC-7901 and MGC-803)) (UniProt Q96FQ6).
T1 sequence: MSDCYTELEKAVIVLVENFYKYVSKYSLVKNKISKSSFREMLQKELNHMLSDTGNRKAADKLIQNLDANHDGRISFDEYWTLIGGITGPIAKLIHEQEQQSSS
Briefly: co-IP; endogenous proteins; whole cell proteins of SGC-7901 and MGC-803 cells extracted by NP40 lysis; immunoprecipitation and Western blot. (In general: In western blotting, separated proteins are transferred to a membrane and probed.)

B1: Zonula Occludens-2 (protein, UniProt Q9UDY2 1-1190)
chain: MPVRGDRGFPPRRELSGWLRAPGMEELIWEQYTVTLQKDSKRGFGIAVSGGRDNPHFENGETSIVISDVLPGGPADGLLQENDRVVMVNGTPMEDVLHSFAVQQLRKSGKVAAIVVKRPRKVQVAALQASPPLDQDDRAFEVMDEFDGRSFRSGYSERSRLNSHGGRSRSWEDSPERGRPHERARSRERDLSRDRSRGRSLERGLDQDHARTRDRSRGRSLERGLDHDFGPSRDRDRDRSRGRSIDQDYERAYHRAYDPDYERAYSPEYRRGARHDARSRGPRSRSREHPHSRSPSPEPRGRPGPIGVLLMKSRANEEYGLRLGSQIFVKEMTRTGLATKDGNLHEGDIILKINGTVTENMSLTDARKLIEKSRGKLQLVVLRDSQQTLINIPSLNDSDSEIEDISEIESNRSFSPEERRHQYSDYDYHSSSEKLKERPSSREDTPSRLSRMGATPTPFKSTGDIAGTVVPETNKEPRYQEDPPAPQPKAAPRTFLRPSPEDEAIYGPNTKMVRFKKGDSVGLRLAGGNDVGIFVAGIQEGTSAEQEGLQEGDQILKVNTQDFRGLVREDAVLYLLEIPKGEMVTILAQSRADVYRDILACGRGDSFFIRSHFECEKETPQSLAFTRGEVFRVVDTLYDGKLGNWLAVRIGNELEKGLIPNKSRAEQMASVQNAQRDNAGDRADFWRMRGQRSGVKKNLRKSREDLTAVVSVSTKFPAYERVLLREAGFKRPVVLFGPIADIAMEKLANELPDWFQTAKTEPKDAGSEKSTGVVRLNTVRQIIEQDKHALLDVTPKAVDLLNYTQWFPIVIFFNPDSRQGVKTMRQRLNPTSNKSSRKLFDQANKLKKTCAHLFTATINLNSANDSWFGSLKDTIQHQQGEAVWVSEGKMEGMDDDPEDRMSYLTAMGADYLSCDSRLISDFEDTDGEGGAYTDNELDEPAEEPLVSSITRSSEPVQHEESIRKPSPEPRAQMRRAASSDQLRDNSPPPAFKPEPPKAKTQNKEESYDFSKSYEYKSNPSAVAGNETPGASTKGYPPPVAAKPTFGRSILKPSTPIPPQEGEEVGESSEEQDNAPKSVLGKVKIFEKMDHKARLQRMQELQEAQNARIEIAQKHPDIYAVPIKTHKPDPGTPQHTSSRPPEPQKAPSRPYQDTRGSYGSDAEEEEYRQQLSEHSKRGYYGQSARYRDTEL
Consider B1, for which the binding result is listed as “binds”.
